Experimental data published in paper PMC7425996.
Residue numbers refer to the chain shown, from its start. In names and notes the source's numbering stands. These are yes or no findings as the source states them, for the method shown. In cells and extracts the contact can be indirect. Some binding calls cover weakened binding; strength is not graded here. Where a sequence is shown, tags or fusion partners need not be part of it.

T1: GFP-Nap1 (Dictyostelium Nap1 tagged with GFP) (Dictyostelium discoideum) (UniProt Q869Q3)
T1 sequence: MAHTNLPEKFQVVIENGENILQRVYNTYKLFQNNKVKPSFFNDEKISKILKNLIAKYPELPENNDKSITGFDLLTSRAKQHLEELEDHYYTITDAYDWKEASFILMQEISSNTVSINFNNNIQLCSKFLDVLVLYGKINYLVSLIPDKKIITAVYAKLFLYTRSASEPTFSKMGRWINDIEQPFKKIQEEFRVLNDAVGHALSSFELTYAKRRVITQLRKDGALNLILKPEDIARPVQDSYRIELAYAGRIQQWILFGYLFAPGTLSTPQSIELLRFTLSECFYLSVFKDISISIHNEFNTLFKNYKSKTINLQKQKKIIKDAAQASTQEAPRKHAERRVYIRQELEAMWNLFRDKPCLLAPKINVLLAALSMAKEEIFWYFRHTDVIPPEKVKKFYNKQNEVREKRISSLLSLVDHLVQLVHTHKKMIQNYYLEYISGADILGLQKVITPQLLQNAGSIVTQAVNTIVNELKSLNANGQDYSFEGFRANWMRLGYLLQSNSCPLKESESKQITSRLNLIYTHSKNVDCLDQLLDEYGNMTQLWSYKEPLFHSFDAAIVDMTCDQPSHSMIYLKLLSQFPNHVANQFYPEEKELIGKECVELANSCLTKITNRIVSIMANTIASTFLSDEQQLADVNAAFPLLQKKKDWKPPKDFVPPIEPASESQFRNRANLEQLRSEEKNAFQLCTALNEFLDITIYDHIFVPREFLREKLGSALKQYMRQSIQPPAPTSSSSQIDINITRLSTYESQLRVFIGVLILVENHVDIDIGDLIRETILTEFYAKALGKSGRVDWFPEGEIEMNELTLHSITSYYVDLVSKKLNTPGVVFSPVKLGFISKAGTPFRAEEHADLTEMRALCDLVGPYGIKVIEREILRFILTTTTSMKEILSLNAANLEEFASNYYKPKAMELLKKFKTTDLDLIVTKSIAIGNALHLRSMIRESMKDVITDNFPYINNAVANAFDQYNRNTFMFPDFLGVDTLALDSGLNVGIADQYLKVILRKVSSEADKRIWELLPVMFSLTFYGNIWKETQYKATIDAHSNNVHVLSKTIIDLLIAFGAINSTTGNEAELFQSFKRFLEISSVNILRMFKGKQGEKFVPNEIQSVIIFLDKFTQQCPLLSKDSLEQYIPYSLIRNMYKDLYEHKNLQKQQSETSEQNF

B1: Abi (Dictyostelium Abi) (protein, UniProt Q55FT9 1-332)
chain: MSESIDINVYSQTTIPNAMAELMDNHNKMEQISAYCKSLYANGDAAQAYEQTQGYAKNALLNVAYHIQTVGTHITSLLQLQTNEMEKLNIEIQTLTQRVRMIHDSTGTNVFSNQDAAKPYKSSLKNRKVDTEATKAPVKYVHKPISYGISASDINQNGVPPPLNHSNSSANLTSSSGHLAASSTSNSSTPSYQSPSYSSQPTISSGTPPPIQKQPPRVGNAPPPPSLSVPAAPPPPVMNVPPPPPTSQRPSSVNNNAPSNDFPPPPPPSSSSSGGDLPPPPSFGLPPPPTLGDDFPPPPPPPVGSYDFPPPPARPQSQFYDHNDFPPPPPPM
B2: Pir121 (Dictyostelium PIR121) (protein, UniProt Q6UK63 1-1336)
chain: MSVDPKQSKIADVFERCDVLESFPFHDDQSEIEEQSPSIGYDAYDKSLNYTDRGAYETQWSEETIGMEKMEEVLKQGDSFINMVYTYRSCSKALPTVKTAEQVNKTQIYEGNFEVLEPEIKKLKDFMYFQKDTIKLFCDHIKKLASTYDKKKETISASESFINYLVRILDLLAILDALKNMKACLNNDFSFFKRATGFLRKQMSGTEDQTQENHTLYLFLANQNSITSSLKLELHNIDKFDDILPMIVNQCADYLEQEKYILPSEKHCLLRVMPFVLFLIDENDSKHNINKNKNLNISRYAKIFKKNPVVPLYGDMQITLESLVKRSPHFDEKAWGTSTLDSKSALDYEIIHVLDQTRSLYNEYMARFANMVNEIRAAKARGPKEPLPLAESDIQAITLMGLRILSDWTSRVLQQSAWKYSKPNNDPTISATFDYERVVKFNYTKEERTALVQLIAMIKSLASLMMKSETLLQPILRKTIHQELQEFVQINLKETIKSFVKNNPKKKDNIKLEMSQLKNISVDWFSGFEPAEAVPNKKSKEVEEKVQIPARAVPPSPTQLELILTLVSSLMDKKKDFSSDQYRDFEAFSSKAFFYRYLLSLSSSIISITDLADLWYREFYLELNNRVQFPIETSLPWILTDHILESDDPSLIEHLFYPLGLYNDTAQRALLSLNQRFLYDEIEAELNLCFDQLLYKLSGKVYTHFKTQASSILLDKPYKTQLELAHFNGKLHTPKSRFDVLLRQKHITLLGRSIDLCGLLAQRQNNTIRQNLDYAISRFEACDLTSIVELETQIANIKLTHKLLSEYFDIDPFESIFNEINESTSLVSYHGRIVLHIIFELVADFAPNYTFNSITQRFIKAPYTFTEELKRDALPKTNPVFLFGNKYLNAAYANSIELYKNFIGVPHIQSILRIVGKKNLPLIVAEVLRNIEIKITNVLSPYVSELLQGMPASTKLPIYDYGTEGGYGYFQLKLKDIYIYPDLRPEVLQTFRELGNSLVFMNLLDQVITQTDSYNFAKAAPFLGITPETWKDLEPSTEDPTLQSPLYSQLQKLAQLLESRPEVAKSSQSLNDMVANAWRADKFYRPSEQNFSLFKSVLQRFSSILNIVRHDWSGAPPDNGVICVDSSTEFYRLWSALQFVICWPLSNENDKSFHELFGDGLMWAGCSLIHFLGQQYRFELFDFCYHILNVEEAAAVRSDKPALKNFFKNAQIIKDINNQIFSILNTYCPPPPPSNMILSPPATEQAEQFIVTTTVEEQSIQQQQQQQQQQQLQQSTSNSGSSLSLSAAGAPPPPPPPSTNGLPPPPPMAEYEMSSSIDDFAPPPPPPFGMPPPPPM
B3: Scar^WT (Dictyostelium Scar expressed from pDM304 in scar- cells) (protein, UniProt Q54NF8 1-443)
chain: MVLITRYLPSVTDNNQPALEGQSKDQIVDTVITSTTVGIINQLTMLVAHSNSIFTALANDANLVTQRIEKLGSRIRPLIQSIPSIEDYHRNTSIDTMNSKPRAEFHADNSERNQHFTHASIPASINTVYEKCKPPPNLQLLDPYMDDGQKSLKLYTNPDFFMDEWVAEQQKLHEEARQRKRERREARLKKKGEKNEVEVKKVKSVTKVRYDPVTGEKITINIESPHTSSPQIQHQSNNTATPQHTTQHFGTNQYQAPPPPPLSQSSPSQQHSPINSYTPPPPPLNTSTPSPSSSFQGRPPSTGFNTPPPPMSNNNNMPPPPPMQQNGGAANNRLSVHNSAPIVAAPAPPPPPPPPSAPAPPPPPMAKAGGGASDIKPKASGARSDLLSSIMQGMALKPAEERKVAEAPKKEEALNVADILARRIAWAGDSDSSEDESDDSDWD
B4: Scar^S8D (phosphomimetic Dictyostelium Scar) (protein, UniProt Q54NF8 1-443)
chain: B3 chain with S287D, S290D, S301D, S335D, S339D, S384D, S388D, S389D
B5: Scar^S8A (unphosphorylatable Dictyostelium Scar) (protein, UniProt Q54NF8 1-443)
chain: B3 chain with S287A, S290A, S301A, S335A, S339A, S384A, S388A, S389A

Target: T1, GFP-Nap1 (Dictyostelium Nap1 tagged with GFP) (Dictyostelium discoideum)
Test: co-IP; GFP-TRAP beads pull down GFP-Nap1 from cleared Dictyostelium lysates in TNE/T buffer (10 mM Tris-HCl pH 7.5, 150 mM NaCl, 0.5 mM EDTA, 0.1% Triton X-100), 2 hours at 4°C, 4 washes; eluates read by Coomassie gel, western blot (Pir121, Nap1, Scar, Abi) and LC-MS/MS of the Scar band; in S2 Fig cells with or without MG132

binding, binds:
B1
B2
B3
B4
B5
